Some of the results follow.
biological target: OsWRKY34 (Oryza sativa, UniProt Q0JBA9 1-250); experiment: protein-binding microarray (RPBM); PBS, 2% BSA, 51.3 ng/ul salmon testes DNA, 50 uM zinc acetate, 200 nM TF, 25 C, 1 h; high values mean tight binding; settings: protein: recombinant; tags: N-terminal polyhistidine and DsRed monomer fusion (pET32a); label: CyDye5-dUTP incorporated in the synthesized complementary strand; 3' TTTTT single-stranded linker to array surface; dsDNA, one strand shown
Procedure, shortened: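 Using Ni–NTA, transcription factors fused N-terminally to polyhistidine and DsRed were purified after expression in E. coli BL21-CodonPlus. These were incubated at 200 nM with a blocked, double-stranded custom Agilent array for 1 h at 25 °C in a buffer containing 50 µM zinc acetate, and the array was washed. The binding signal is per-feature fluorescence intensity (arbitrary units) on an Axon 4000B scanner.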

By UniProt entry, the sequences of proteins in these tests, tags left out.
UniProt Q0JBA9, entry or part of it: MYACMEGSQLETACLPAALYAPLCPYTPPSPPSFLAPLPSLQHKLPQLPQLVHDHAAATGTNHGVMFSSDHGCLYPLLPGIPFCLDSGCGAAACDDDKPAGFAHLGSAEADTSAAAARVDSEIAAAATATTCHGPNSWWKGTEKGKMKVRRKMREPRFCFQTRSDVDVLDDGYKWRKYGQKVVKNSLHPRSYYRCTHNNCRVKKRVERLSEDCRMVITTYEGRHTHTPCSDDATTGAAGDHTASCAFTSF

**Q.** “AGACCACCACCTCCACCGCTGTCCGCGGCGACGGCAACCGCGGAGTCACCTAGTGCAG” was tested. Which binding signal did it give?
**A.** 8200 fluorescence intensity (a.u.)

**Q.** Which binding signal does the source give for “TGCAAACACATTTAAACAGAAGTCAGCATACCATATCTATCGGAGTCACCTAGTGCAG” here?
**A.** 8050 fluorescence intensity (a.u.)

**Q.** Which binding signal does the source give for “ACTGTGAATGTGTGACTAAATGGGCCGAGCCCAACTACTACGGAGTCACCTAGTGCAG” here?
**A.** 9860 fluorescence intensity (a.u.)

**Q.** For “CCAACTTCATGGCCAACCCACAATTCTGAATTCCACATGACGGAGTCACCTAGTGCAG”, which binding signal is on record?
**A.** 9060 fluorescence intensity (a.u.)

**Q.** Which binding signal does the source give for “TGTGTTCGCCATCGATATCTGGTTGTAGGCACGTTGCATGCGGAGTCACCTAGTGCAG” here?
**A.** 9520 fluorescence intensity (a.u.)

**Q.** With “ATGAAACTAATTTAATGCTTTAAGTGTGTACTACATTTTTCGGAGTCACCTAGTGCAG” as the sequence, how does the binding signal read?
**A.** 8170 fluorescence intensity (a.u.)

**Q.** How did the binding signal turn out when “CCTGCGGATGCCATCCGTTGACTCCCGCATCCAGCTTCGCCGGAGTCACCTAGTGCAG” was run?
**A.** 9170 fluorescence intensity (a.u.)

**Q.** “TCTTACTTGCATGTGAACACCTCTTTGTCGGTTTTTCCATCGGAGTCACCTAGTGCAG” was tested. Which binding signal did it give?
**A.** 10400 fluorescence intensity (a.u.)

**Q.** For “ATCTGTGCAAGTTTAAACACCGTCCATGCACTTCACTCAACGGAGTCACCTAGTGCAG”, which binding signal is on record?
**A.** 8320 fluorescence intensity (a.u.)

**Q.** Which binding signal does the source give for “AGTCTCACGGTTTCTGCTTTCCACATCCGCCGCGGCCATGCGGAGTCACCTAGTGCAG” here?
**A.** 9010 fluorescence intensity (a.u.)

**Q.** For “TTTGGGTGTTAGTGTCTTAATTAGTGTGTGAGCCCCATCCCGGAGTCACCTAGTGCAG”, which binding signal is on record?
**A.** 8880 fluorescence intensity (a.u.)

**Q.** With “CTCTTCTTCCTCGCCTCCGCGGGCTCCTTCTCCTTCTGGACGGAGTCACCTAGTGCAG” as the sequence, how does the binding signal read?
**A.** 8720 fluorescence intensity (a.u.)

**Q.** With “CTCTTCACATAAGATGCCATCTCTTCTATCCATGCCTACACGGAGTCACCTAGTGCAG” as the sequence, how does the binding signal read?
**A.** 11300 fluorescence intensity (a.u.)

**Q.** With “CGCATTCTTTTTTTCTTTTTTTTCTTCTCCCTCGCACATGCGGAGTCACCTAGTGCAG” as the sequence, how does the binding signal read?
**A.** 10200 fluorescence intensity (a.u.)

**Q.** For “GGTGTGATACCACGATACGTATCCTGATACTGACAACCTTCGGAGTCACCTAGTGCAG”, which binding signal is on record?
**A.** 8360 fluorescence intensity (a.u.)

**Q.** With “TTAAAACATGTTTCCATTATTTGATATCTTAACCTACCTTCGGAGTCACCTAGTGCAG” as the sequence, how does the binding signal read?
**A.** 8030 fluorescence intensity (a.u.)

**Q.** “CTCTTCCTTATCTCTTGTACTCTCTATATACACCGCCTCTCGGAGTCACCTAGTGCAG” was tested. Which binding signal did it give?
**A.** 11500 fluorescence intensity (a.u.)

**Q.** With “GCGGCTGTACTTTGGGTTAGCTTGACTTTTTAATTGCATACGGAGTCACCTAGTGCAG” as the sequence, how does the binding signal read?
**A.** 10800 fluorescence intensity (a.u.)

**Q.** Which binding signal does the source give for “GTACTTTTCTTCCCAGCTACCCAGGTCTTGATCTGAAATCCGGAGTCACCTAGTGCAG” here?
**A.** 8340 fluorescence intensity (a.u.)

**Q.** How did the binding signal turn out when “GAATCTCAATTCTGGGGTTTGGATTTGGTGTTGCGTCCGGCGGAGTCACCTAGTGCAG” was run?
**A.** 8810 fluorescence intensity (a.u.)

**Q.** “TCATTTCTTCCCGATCTGTCCCGTCCCGTCCCGTCCCGTCCGGAGTCACCTAGTGCAG” was tested. Which binding signal did it give?
**A.** 11000 fluorescence intensity (a.u.)

**Q.** How did the binding signal turn out when “GGTATTTTCAATAGTGTTTAGTGTGTATTTGGTTTGAAGCCGGAGTCACCTAGTGCAG” was run?
**A.** 9520 fluorescence intensity (a.u.)

**Q.** With “CCGCTCACCTTGCCTCGTTACCCACCTCTTGTGGCTCACCCGGAGTCACCTAGTGCAG” as the sequence, how does the binding signal read?
**A.** 8720 fluorescence intensity (a.u.)

**Q.** “TCATCCCGTTGATATATATTCTGTCATTATAAGTTTCATACGGAGTCACCTAGTGCAG” was tested. Which binding signal did it give?
**A.** 8710 fluorescence intensity (a.u.)

**Q.** “CCCCACGTCGGAGCTCATTGCCAGCGGCCGCGTCCTCCTTCGGAGTCACCTAGTGCAG” was tested. Which binding signal did it give?
**A.** 9600 fluorescence intensity (a.u.)

**Q.** Which binding signal does the source give for “CGCTTATTCTTATACTTATCAGCTAAAATTTAAATTTTCACGGAGTCACCTAGTGCAG” here?
**A.** 10900 fluorescence intensity (a.u.)

**Q.** With “ATTCGAAAGTCTAAGTTGTATTTTCTCCGGTTCCATATATCGGAGTCACCTAGTGCAG” as the sequence, how does the binding signal read?
**A.** 9350 fluorescence intensity (a.u.)

**Q.** “GAGTTGTAAAGCTTTTGACCGGTTTCTAATCAACACATACCGGAGTCACCTAGTGCAG” was tested. Which binding signal did it give?
**A.** 8350 fluorescence intensity (a.u.)

**Q.** “CAGCCACCATCTCAGCCCAAGTGCGTCTGTCCGCTGTGTTCGGAGTCACCTAGTGCAG” was tested. Which binding signal did it give?
**A.** 8380 fluorescence intensity (a.u.)

**Q.** “CATCGCGACCATCCGTGGTTCTCTAAAATTTTGACCATAACGGAGTCACCTAGTGCAG” was tested. Which binding signal did it give?
**A.** 8360 fluorescence intensity (a.u.)

**Q.** “GGTTTCCCAACTTGTGATTTTTTTGTCCATTTTCTGGATTCGGAGTCACCTAGTGCAG” was tested. Which binding signal did it give?
**A.** 8760 fluorescence intensity (a.u.)

**Q.** “TTCACTGTCGGTCGCCTCTACCACCATCAATTGGTCTTCTCGGAGTCACCTAGTGCAG” was tested. Which binding signal did it give?
**A.** 8380 fluorescence intensity (a.u.)

**Q.** “ACTACATACCCTGTTTTTTTTTTCTTTTTACTCTTTGATGCGGAGTCACCTAGTGCAG” was tested. Which binding signal did it give?
**A.** 9560 fluorescence intensity (a.u.)

**Q.** “GCGTCCAGCCGCGGCCCGCCCGACCACCTTTTCACCTCCGCGGAGTCACCTAGTGCAG” was tested. Which binding signal did it give?
**A.** 8460 fluorescence intensity (a.u.)

**Q.** “GTTGACTTTTTTAAACATGTTGGACCGTTCGTCTTATTCACGGAGTCACCTAGTGCAG” was tested. Which binding signal did it give?
**A.** 9150 fluorescence intensity (a.u.)

**Q.** Which binding signal does the source give for “AAAACATTTCCCTAGCCATTAATCTCACCGTCATTCTCTTCGGAGTCACCTAGTGCAG” here?
**A.** 9480 fluorescence intensity (a.u.)

**Q.** For “GGGCGGGCGGGCTCGAGGTTGTGGTGGGGCGTGTGGCAGGCGGAGTCACCTAGTGCAG”, which binding signal is on record?
**A.** 18200 fluorescence intensity (a.u.)

**Q.** Which binding signal does the source give for “GGCCCACATGTAGATTACACTACCGTTCCAGACCAACATACGGAGTCACCTAGTGCAG” here?
**A.** 8240 fluorescence intensity (a.u.)

**Q.** For “GTCGATTTTCTTGGTTCTTTGTGCCCTAGACTGCTACCTGCGGAGTCACCTAGTGCAG”, which binding signal is on record?
**A.** 10500 fluorescence intensity (a.u.)

**Q.** Which binding signal does the source give for “ATGTACTCGTGTGGTTTCCGATGTCAATTTCCATAGCGTTCGGAGTCACCTAGTGCAG” here?
**A.** 8530 fluorescence intensity (a.u.)

**Q.** Which binding signal does the source give for “CGCATTCATGACTTCTTGTTTGTTTTAACCTCCATATGTTCGGAGTCACCTAGTGCAG” here?
**A.** 10100 fluorescence intensity (a.u.)

**Q.** How did the binding signal turn out when “TTTCTGCATGAAATTAGTGGATCTGTGTTGTTTTCGGTGTCGGAGTCACCTAGTGCAG” was run?
**A.** 8140 fluorescence intensity (a.u.)

**Q.** “GGGAGGAGTGGGAGGAGGAGGGCGATAGGGAGAGGGAGGACGGAGTCACCTAGTGCAG” was tested. Which binding signal did it give?
**A.** 8800 fluorescence intensity (a.u.)

**Q.** How did the binding signal turn out when “ATCTGTTCCTTGTTGATCTACTAGAATATTTCTCCTTTTTCGGAGTCACCTAGTGCAG” was run?
**A.** 8400 fluorescence intensity (a.u.)

**Q.** With “AAAATCACTCTACCTACTGTACTCTACCTACTGTTACTTTCGGAGTCACCTAGTGCAG” as the sequence, how does the binding signal read?
**A.** 13200 fluorescence intensity (a.u.)

**Q.** How did the binding signal turn out when “ATGTTTTTCTTTTTCTTTTTGATTTTTAAACCAAATTGTTCGGAGTCACCTAGTGCAG” was run?
**A.** 10000 fluorescence intensity (a.u.)

**Q.** For “GGATTACATGGAACCTGATACTATTTGCTTGACCATATGTCGGAGTCACCTAGTGCAG”, which binding signal is on record?
**A.** 8380 fluorescence intensity (a.u.)

**Q.** How did the binding signal turn out when “AATTGATTTAATTACTGGGTATTTTATGTTAGTGGACTTCCGGAGTCACCTAGTGCAG” was run?
**A.** 8860 fluorescence intensity (a.u.)

**Q.** Which binding signal does the source give for “TTTTTCTTTTTATTGTCTTGTTCTCGTGCGTGTTGAAAAACGGAGTCACCTAGTGCAG” here?
**A.** 20300 fluorescence intensity (a.u.)

**Q.** “CCTTACAAGACATCAGTGCTCGACTACATATGTACTACTACGGAGTCACCTAGTGCAG” was tested. Which binding signal did it give?
**A.** 8460 fluorescence intensity (a.u.)

**Q.** Which binding signal does the source give for “ACTTTCCTCTCGGAGTATCGGTAATCTTTCGTTACGTTTTCGGAGTCACCTAGTGCAG” here?
**A.** 8280 fluorescence intensity (a.u.)

**Q.** For “GCATGCCAACACACCTACGTTCGCTTCATAACTCCACAAGCGGAGTCACCTAGTGCAG”, which binding signal is on record?
**A.** 8800 fluorescence intensity (a.u.)

**Q.** Which binding signal does the source give for “ACTTCCAAACCGTCCAGCATACCGCACCAACCCTGAAGAACGGAGTCACCTAGTGCAG” here?
**A.** 8200 fluorescence intensity (a.u.)

**Q.** For “GTTCTCACGGCTTAGTTTTCTGCTTTGCAGGCTTCAACAGCGGAGTCACCTAGTGCAG”, which binding signal is on record?
**A.** 8170 fluorescence intensity (a.u.)

Reference: PMC7819943, “Rice protein-binding microarrays: a tool to detect cis-acting elements near promoter regions in rice”
